Body weight data for 1 compound are collected here from patent US20020128295A1, “Use of pyridoxamine for the treatment and inhibition of obesity-related complications” (priority 2000, published 2002).

The data set can be described thus: Weight gain in Zucker obese (fa/fa) rats. It is filed as in vivo, rat. To be noted: week 32, 2 g PM/L in drinking water.

Molecules are shown by their SMILES.

The compound `Cc1ncc(CO)c(CN)c1O` [PM, Pyridoxamine] came in with a Body weight of 746 ± 60 g.
